Here are results for 6 substances from publication PMC3547847.

Protein sequences, listed by entry. Tags and fused reporters are not part of them.
UniProt O95568: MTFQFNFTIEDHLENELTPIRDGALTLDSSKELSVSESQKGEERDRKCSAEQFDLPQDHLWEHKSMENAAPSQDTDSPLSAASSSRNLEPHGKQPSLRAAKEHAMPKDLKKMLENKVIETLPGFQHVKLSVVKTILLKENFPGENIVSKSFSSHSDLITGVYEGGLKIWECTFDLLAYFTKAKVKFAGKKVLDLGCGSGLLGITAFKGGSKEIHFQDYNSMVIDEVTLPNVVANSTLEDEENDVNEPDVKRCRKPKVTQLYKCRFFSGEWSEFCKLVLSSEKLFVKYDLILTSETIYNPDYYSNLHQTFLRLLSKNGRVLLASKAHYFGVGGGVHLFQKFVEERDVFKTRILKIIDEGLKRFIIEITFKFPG
UniProt Q8WXB1: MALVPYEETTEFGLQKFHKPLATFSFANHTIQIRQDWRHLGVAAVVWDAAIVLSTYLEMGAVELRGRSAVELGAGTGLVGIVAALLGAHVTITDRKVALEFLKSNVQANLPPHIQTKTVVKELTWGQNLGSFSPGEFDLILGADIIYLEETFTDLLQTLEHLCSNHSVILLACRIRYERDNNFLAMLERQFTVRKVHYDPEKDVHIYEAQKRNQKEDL
UniProt P25694: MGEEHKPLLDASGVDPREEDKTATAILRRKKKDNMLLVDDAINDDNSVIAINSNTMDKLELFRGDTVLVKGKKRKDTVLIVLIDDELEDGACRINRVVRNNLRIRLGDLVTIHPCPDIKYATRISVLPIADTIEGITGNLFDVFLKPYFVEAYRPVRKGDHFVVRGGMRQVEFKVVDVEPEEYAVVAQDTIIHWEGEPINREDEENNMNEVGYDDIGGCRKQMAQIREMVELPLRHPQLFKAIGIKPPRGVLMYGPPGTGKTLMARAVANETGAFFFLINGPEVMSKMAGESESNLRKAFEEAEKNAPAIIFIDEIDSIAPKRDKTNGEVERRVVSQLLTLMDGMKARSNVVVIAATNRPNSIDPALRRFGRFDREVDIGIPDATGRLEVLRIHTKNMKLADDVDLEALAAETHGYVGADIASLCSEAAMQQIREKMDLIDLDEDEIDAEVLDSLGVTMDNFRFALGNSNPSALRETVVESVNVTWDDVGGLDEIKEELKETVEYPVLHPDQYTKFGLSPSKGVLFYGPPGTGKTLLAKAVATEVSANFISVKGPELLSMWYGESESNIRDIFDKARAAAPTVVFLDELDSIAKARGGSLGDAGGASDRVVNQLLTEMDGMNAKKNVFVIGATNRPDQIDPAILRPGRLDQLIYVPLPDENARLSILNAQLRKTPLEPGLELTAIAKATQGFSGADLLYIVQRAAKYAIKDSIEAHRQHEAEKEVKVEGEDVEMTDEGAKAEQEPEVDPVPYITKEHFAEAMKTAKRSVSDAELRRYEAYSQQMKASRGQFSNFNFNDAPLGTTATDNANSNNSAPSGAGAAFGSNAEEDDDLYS
UniProt Q9BQ67: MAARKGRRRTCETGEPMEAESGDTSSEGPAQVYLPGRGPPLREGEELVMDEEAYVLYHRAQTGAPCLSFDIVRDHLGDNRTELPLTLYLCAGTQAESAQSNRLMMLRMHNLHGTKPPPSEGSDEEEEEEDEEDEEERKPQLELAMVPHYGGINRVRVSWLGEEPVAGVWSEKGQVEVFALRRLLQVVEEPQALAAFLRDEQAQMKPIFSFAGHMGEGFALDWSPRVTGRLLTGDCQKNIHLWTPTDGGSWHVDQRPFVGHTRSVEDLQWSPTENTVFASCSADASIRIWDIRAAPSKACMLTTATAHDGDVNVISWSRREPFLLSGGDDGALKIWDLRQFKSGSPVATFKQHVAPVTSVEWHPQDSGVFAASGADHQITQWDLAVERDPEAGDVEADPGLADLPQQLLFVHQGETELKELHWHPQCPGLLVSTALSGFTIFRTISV
UniProt P11142: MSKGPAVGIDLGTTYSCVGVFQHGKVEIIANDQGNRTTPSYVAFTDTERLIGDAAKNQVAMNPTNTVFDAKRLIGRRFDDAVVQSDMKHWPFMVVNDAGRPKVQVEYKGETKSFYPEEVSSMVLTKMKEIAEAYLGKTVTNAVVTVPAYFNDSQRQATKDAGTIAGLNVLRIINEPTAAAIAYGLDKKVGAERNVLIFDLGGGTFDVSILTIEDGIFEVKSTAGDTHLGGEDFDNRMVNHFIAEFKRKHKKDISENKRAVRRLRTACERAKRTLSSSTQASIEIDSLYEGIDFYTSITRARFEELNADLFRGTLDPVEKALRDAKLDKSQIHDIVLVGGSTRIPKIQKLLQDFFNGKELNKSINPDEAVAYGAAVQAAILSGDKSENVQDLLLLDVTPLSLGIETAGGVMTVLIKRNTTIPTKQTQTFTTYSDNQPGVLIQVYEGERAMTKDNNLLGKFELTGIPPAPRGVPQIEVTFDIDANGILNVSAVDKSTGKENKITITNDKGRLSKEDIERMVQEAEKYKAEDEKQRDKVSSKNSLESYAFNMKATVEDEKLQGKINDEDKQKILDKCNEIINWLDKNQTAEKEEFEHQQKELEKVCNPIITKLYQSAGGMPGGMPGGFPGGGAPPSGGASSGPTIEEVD

Assay [1] concerns the target T1, Nnt1p (TAP-tagged NNT1) (Saccharomyces cerevisiae) (UniProt Q05874).
T1 sequence: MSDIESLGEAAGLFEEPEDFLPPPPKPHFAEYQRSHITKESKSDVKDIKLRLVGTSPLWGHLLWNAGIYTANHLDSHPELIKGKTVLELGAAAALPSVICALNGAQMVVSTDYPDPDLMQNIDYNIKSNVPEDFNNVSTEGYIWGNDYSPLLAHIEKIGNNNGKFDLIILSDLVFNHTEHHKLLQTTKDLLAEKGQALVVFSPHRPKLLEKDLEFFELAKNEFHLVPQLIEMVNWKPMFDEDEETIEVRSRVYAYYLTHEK
Kind of assay: affinity purification with mass spectrometry; tandem-affinity purification of TAP-tagged NNT1 from a constitutively expressing yeast strain, compared with untransformed strain BY4741.

Assay [2] deals with METTL18 (TAP-tagged) (human) (UniProt O95568). In words: affinity purification with mass spectrometry; tandem affinity purification of C-terminally TAP-tagged methyltransferases from whole cell extracts of ponasterone A-induced EcR-293 cells; eluates on SDS-PAGE, silver stain, gel slices, LC-MS/MS; interactions scored with Decontaminator (FDR below 10%).
The target in assay [3] is METTL21A (TAP-tagged) (human) (UniProt Q8WXB1). Described as above.
In assay [4] the target is T2, METTL21B (TAP-tagged) (human) (UniProt Q96AZ1).
T2 sequence: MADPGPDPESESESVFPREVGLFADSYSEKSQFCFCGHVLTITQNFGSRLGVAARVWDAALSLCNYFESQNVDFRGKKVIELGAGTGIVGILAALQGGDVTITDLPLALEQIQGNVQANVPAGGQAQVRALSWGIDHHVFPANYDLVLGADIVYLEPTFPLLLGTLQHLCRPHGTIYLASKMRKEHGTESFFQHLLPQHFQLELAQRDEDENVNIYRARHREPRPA
The assay is described as above.

Results are given in words; binding and its absence hold for the method and conditions named. Binding seen in cells or lysates may run through a third protein. A yes stands for co-enrichment or nearness to the bait. Other partners may have been found. For part of these data: Tags and fused reporters may be left off the sequences shown.

Turning to Cdc48p (from UniProt P25694 1-835), the binding entry in assay [1] is given as “binds”.

Consider “GRWD1 (endogenous, prey) (from UniProt Q9BQ67 1-446)”, for which, in assay [2], the binding result is given as “binds”.

With “HSPA8/Hsc70 (endogenous, prey) (from UniProt P11142 1-646)”, the binding result in assay [3] is “binds”.

In the case of “Hsp70 (in the METTL21B purification) (human (endogenous in EcR-293))”, in assay [4], the binding result is “binds”.

Turning to “Hsp90 (in the METTL21B purification) (human (endogenous in EcR-293))”, the binding entry in assay [4] is recorded as “binds”.

For the substance “STIP1 (endogenous, prey) (from UniProt P31948 1-543)”, the binding entry in assay [4] was “binds”.
